In article PMC8788068:
No constants are given. Whether binding was seen depends on the method and setting. Binding seen in cells or lysates may run through a third protein. A yes stands for co-enrichment or nearness to the bait. Other partners may have been found.

Sequences of proteins named here, by UniProt entry; tags and fusion partners are left off.
UniProt P15924: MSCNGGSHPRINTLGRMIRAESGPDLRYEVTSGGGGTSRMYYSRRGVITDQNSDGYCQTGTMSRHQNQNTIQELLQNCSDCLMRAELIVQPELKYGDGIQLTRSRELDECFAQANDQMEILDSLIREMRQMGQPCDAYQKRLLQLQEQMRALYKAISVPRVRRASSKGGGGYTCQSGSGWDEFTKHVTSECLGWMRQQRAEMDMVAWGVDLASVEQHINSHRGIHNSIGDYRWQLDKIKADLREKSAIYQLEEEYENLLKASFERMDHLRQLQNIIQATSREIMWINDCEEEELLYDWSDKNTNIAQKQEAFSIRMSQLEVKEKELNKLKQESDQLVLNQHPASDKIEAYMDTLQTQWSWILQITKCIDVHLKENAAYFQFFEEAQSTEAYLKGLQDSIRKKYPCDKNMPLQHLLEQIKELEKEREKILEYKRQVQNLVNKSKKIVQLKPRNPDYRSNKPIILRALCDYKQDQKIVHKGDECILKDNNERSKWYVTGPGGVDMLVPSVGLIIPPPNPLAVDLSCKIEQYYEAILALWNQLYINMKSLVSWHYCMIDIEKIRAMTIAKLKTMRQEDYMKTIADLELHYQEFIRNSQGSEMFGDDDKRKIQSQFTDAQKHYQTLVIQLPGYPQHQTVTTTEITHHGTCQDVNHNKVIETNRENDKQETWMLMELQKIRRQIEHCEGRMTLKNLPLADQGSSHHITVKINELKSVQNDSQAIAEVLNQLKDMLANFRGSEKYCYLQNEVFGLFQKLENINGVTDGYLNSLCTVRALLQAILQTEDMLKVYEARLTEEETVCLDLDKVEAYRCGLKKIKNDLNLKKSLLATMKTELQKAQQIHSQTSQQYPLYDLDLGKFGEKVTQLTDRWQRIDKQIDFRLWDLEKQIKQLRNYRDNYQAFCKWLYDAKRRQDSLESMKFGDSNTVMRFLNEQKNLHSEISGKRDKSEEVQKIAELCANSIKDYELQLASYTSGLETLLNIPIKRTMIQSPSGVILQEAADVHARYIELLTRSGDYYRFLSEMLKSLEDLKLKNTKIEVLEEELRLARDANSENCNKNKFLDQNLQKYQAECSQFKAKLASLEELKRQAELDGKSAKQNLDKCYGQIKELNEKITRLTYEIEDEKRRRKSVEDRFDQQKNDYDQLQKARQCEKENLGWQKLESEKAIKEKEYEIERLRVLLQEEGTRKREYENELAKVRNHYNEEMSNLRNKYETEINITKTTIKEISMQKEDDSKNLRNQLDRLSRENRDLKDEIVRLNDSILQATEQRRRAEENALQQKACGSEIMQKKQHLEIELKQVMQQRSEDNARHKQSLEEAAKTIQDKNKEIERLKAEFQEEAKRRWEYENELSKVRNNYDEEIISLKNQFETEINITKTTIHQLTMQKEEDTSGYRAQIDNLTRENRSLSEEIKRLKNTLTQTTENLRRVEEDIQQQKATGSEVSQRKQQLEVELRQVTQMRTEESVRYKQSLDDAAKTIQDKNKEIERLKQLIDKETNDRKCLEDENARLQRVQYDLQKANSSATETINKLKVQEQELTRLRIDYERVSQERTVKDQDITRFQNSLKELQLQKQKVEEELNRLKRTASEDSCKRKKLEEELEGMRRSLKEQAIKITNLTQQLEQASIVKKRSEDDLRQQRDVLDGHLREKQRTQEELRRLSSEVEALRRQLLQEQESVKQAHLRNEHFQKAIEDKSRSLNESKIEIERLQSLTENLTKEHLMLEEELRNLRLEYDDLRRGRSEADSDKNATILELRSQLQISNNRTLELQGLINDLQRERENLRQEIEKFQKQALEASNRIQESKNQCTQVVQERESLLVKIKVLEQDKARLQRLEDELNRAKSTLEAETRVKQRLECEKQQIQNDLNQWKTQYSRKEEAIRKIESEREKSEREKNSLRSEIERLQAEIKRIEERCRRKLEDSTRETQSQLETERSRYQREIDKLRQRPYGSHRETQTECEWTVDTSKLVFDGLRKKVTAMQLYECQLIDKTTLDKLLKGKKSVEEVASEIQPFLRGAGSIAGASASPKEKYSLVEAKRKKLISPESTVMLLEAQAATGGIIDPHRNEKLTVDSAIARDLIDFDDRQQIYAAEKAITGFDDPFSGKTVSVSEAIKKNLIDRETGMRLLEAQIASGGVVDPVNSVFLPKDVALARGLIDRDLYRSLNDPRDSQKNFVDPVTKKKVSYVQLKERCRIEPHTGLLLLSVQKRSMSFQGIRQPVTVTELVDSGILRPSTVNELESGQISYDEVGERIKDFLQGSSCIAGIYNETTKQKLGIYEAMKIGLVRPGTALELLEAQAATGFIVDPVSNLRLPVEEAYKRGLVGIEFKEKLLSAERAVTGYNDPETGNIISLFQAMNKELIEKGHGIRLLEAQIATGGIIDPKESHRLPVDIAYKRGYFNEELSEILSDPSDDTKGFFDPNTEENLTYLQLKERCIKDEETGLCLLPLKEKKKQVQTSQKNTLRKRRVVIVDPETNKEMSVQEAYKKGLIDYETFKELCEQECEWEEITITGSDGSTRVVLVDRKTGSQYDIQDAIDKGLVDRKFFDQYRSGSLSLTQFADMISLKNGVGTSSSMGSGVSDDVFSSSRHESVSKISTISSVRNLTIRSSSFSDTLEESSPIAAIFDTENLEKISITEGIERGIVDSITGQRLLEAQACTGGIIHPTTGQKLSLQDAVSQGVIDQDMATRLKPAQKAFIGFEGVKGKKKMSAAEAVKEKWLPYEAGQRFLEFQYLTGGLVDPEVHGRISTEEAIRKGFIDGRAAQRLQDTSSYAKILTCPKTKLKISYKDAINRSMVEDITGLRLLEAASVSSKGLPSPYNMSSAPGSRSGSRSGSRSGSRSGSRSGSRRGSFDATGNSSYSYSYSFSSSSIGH

T1: Keratin 13 (KRT13), overexpressed in MCF7 cells (MCF7-KRT13) (human) (UniProt P13646)
T1 sequence: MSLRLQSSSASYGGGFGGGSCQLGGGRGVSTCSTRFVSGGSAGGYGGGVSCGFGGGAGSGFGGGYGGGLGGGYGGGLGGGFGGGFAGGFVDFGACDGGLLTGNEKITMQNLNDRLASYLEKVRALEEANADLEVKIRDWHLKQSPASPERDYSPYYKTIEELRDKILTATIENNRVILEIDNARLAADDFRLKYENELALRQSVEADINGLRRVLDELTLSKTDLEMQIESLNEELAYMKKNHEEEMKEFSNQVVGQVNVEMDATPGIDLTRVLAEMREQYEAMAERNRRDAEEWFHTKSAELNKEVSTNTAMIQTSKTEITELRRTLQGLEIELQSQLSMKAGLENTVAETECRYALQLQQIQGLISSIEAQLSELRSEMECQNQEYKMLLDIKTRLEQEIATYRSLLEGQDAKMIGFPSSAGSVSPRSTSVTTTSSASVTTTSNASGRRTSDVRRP

B1: plakoglobin (PG, γ-catenin) (protein, UniProt P14923 1-745)
chain: MEVMNLMEQPIKVTEWQQTYTYDSGIHSGANTCVPSVSSKGIMEEDEACGRQYTLKKTTTYTQGVPPSQGDLEYQMSTTARAKRVREAMCPGVSGEDSSLLLATQVEGQATNLQRLAEPSQLLKSAIVHLINYQDDAELATRALPELTKLLNDEDPVVVTKAAMIVNQLSKKEASRRALMGSPQLVAAVVRTMQNTSDLDTARCTTSILHNLSHHREGLLAIFKSGGIPALVRMLSSPVESVLFYAITTLHNLLLYQEGAKMAVRLADGLQKMVPLLNKNNPKFLAITTDCLQLLAYGNQESKLIILANGGPQALVQIMRNYSYEKLLWTTSRVLKVLSVCPSNKPAIVEAGGMQALGKHLTSNSPRLVQNCLWTLRNLSDVATKQEGLESVLKILVNQLSVDDVNVLTCATGTLSNLTCNNSKNKTLVTQNSGVEALIHAILRAGDKDDITEPAVCALRHLTSRHPEAEMAQNSVRLNYGIPAIVKLLNQPNQWPLVKATIGLIRNLALCPANHAPLQEAAVIPRLVQLLVKAHQDAQRHVAAGTQQPYTDGVRMEEIVEGCTGALHILARDPMNRMEIFRLNTIPLFVQLLYSSVENIQRVAAGVLCELAQDKEAADAIDAEGASAPLMELLHSRNEGTATYAAAVLFRISEDKNPDYRKRVSVELTNSLFKHDPAAWEAAQSMIPINEPYGDDMDATYRPMYSSDVPLDPLEMHMDMDGDYPIDTYSDGLRPPYPTADHMLA

Molecular target: T1, Keratin 13 (KRT13), overexpressed in MCF7 cells (MCF7-KRT13) (human)
Experiment: affinity purification with mass spectrometry; anti-KRT13 antibody immunoprecipitation from MCF7-KRT13 cell lysate (compared with MCF7-con), Protein A/G PLUS-Agarose, 4 °C overnight, LC-MS/MS with spectral counting

Molecule | binding
desmoplakin (DSP) (from UniProt P15924 1-2871) | binds
B1 | binds
